Reference: the supplement of paper PMC4604168 (melanoma cell lines)
This is one part of the list. Single values are uncertain, as repeats are few or missing.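 Cells were imaged in 1,536-well plates, and nuclei stained with an antibody against cleaved PARP were counted against all DNA-stained nuclei to give the apoptosis fraction. Screening doses were chosen to leave most cells alive, and resting and induced cleaved-PARP levels differ strongly between cell lines.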

Each molecule was assayed on 501Mel (assay: cleaved PARP positive nuclei fraction relative to DMSO control; melanoma cells; higher = more apoptosis). Conditions: library dose: low library concentration; 72 h.

Structure (SMILES) | cleaved PARP positive nuclei fraction [%]
Cn1c(Nc2ccc(C(F)(F)F)cc2)nc2cc(Oc3ccnc(-c4ncc(C(F)(F)F)[nH]4)c3)ccc21 + O=C(Oc1ccc([N+](=O)[O-])cc1)N1CCC(C(O)(c2ccc3c(c2)OCO3)c2ccc3c(c2)OCO3)CC1 [JZL184] (first compound 0.08 µM, partner dose 1 µM) | 64.6
C/C(O)=C(\C#N)C(=O)Nc1cc(Br)ccc1Br + COc1cc(N2CCC(N3CCN(C)CC3)CC2)ccc1Nc1ncc(Cl)c(Nc2ccccc2S(=O)(=O)C(C)C)n1 [NVP-TAE684] (first compound 2 µM, partner dose 0.08 µM) | 166
Cc1cc(SCc2sc(-c3ccc(C(F)(F)F)c(F)c3)nc2C)ccc1OCC(=O)O + Cc1cc([N+](=O)[O-])ccc1NS(=O)(=O)c1cc(Cl)ccc1Cl [FH535] (first compound 2 µM, partner dose 1 µM) | 74.4
C[As](C)SC[C@H](NC(=O)CC[C@H](N)C(=O)O)C(=O)NCC(=O)O [Darinaparsin] + O=S(=O)(c1ccccc1)N(CC(F)(F)F)c1ccc(C(O)(C(F)(F)F)C(F)(F)F)cc1 [T0901317] (first compound 0.4 µM, partner dose 1.4 µM) | 226
Cc1cc(SCc2sc(-c3ccc(C(F)(F)F)c(F)c3)nc2C)ccc1OCC(=O)O + Oc1nc(-c2ccc(C(F)(F)F)cc2)nc2c1CSCC2 [XAV939] (first compound 2 µM, partner dose 2 µM) | 43.8
CCc1ccc(CCOc2ccc(CC3SC(=O)NC3=O)cc2)nc1 (configuration not stated) [pioglitazone] + Cc1cc(SCc2sc(-c3ccc(C(F)(F)F)c(F)c3)nc2C)ccc1OCC(=O)O [GW0742] (first compound 2 µM, partner dose 2 µM) | 197
Cc1cc(N2CCOCC2)cc2[nH]c(-c3c(NC[C@@H](O)c4cccc(Cl)c4)cc[nH]c3=O)nc12 + O=C(Oc1ccc([N+](=O)[O-])cc1)N1CCC(C(O)(c2ccc3c(c2)OCO3)c2ccc3c(c2)OCO3)CC1 [JZL184] (first compound 0.2 µM, partner dose 1 µM) | 93.2
C[As](C)SC[C@H](NC(=O)CC[C@H](N)C(=O)O)C(=O)NCC(=O)O [Darinaparsin] + O=C(Oc1ccc([N+](=O)[O-])cc1)N1CCC(C(O)(c2ccc3c(c2)OCO3)c2ccc3c(c2)OCO3)CC1 [JZL184] (first compound 0.4 µM, partner dose 1 µM) | 47.8
Cc1cc(SCc2sc(-c3ccc(C(F)(F)F)c(F)c3)nc2C)ccc1OCC(=O)O + c1cc(-c2cnn3cc(-c4ccc(OCCN5CCCCC5)cc4)cnc23)ccn1 [Dorsomorphin] (first compound 2 µM, partner dose 0.4 µM) | 98.9
C#Cc1cccc(Nc2ncnc3cc(OCCOC)c(OCCOC)cc23)c1 [erlotinib] + C/C(O)=C(\C#N)C(=O)Nc1cc(Br)ccc1Br [LFM-A13] (first compound 0.8 µM, partner dose 2 µM) | 75
C/C(O)=C(\C#N)C(=O)Nc1cc(Br)ccc1Br + O=c1cc(-c2cccc3c2Sc2ccccc2S3)oc(N2CCOCC2)c1 [KU55933] (first compound 2 µM, partner dose 1 µM) | 41.7
Cc1cc(SCc2sc(-c3ccc(C(F)(F)F)c(F)c3)nc2C)ccc1OCC(=O)O + Oc1cc(-c2nc(-c3ccccc3)[nH]c2-c2ccncc2)ccc1Cl [L779450] (first compound 2 µM, partner dose 0.2 µM) | 108
O=C(Nc1cccc(Cl)c1)Nc1ncc(CCNc2ncnc3ccsc23)s1 + O=C(Oc1ccc([N+](=O)[O-])cc1)N1CCC(C(O)(c2ccc3c(c2)OCO3)c2ccc3c(c2)OCO3)CC1 [JZL184] (first compound 0.0008 µM, partner dose 1 µM) | 134
COc1ccc(-c2ccc3c(N4CCOCC4)nc(N4C[C@@H](C)O[C@@H](C)C4)nc3n2)cc1CO + O=C(Oc1ccc([N+](=O)[O-])cc1)N1CCC(C(O)(c2ccc3c(c2)OCO3)c2ccc3c(c2)OCO3)CC1 [JZL184] (first compound 0.02 µM, partner dose 1 µM) | 62.6
Cc1nc(Nc2ncc(C(=O)Nc3c(C)cccc3Cl)s2)cc(N2CCN(CCO)CC2)n1 [dasatanib] + C/C(O)=C(\C#N)C(=O)Nc1cc(Br)ccc1Br [LFM-A13] (first compound 0.004 µM, partner dose 2 µM) | 91.1
COCC[n+]1c2c(n(Cc3cnccn3)c1C)C(=O)c1ccccc1C2=O + Cc1cc(SCc2sc(-c3ccc(C(F)(F)F)c(F)c3)nc2C)ccc1OCC(=O)O [GW0742] (first compound 0.0004 µM, partner dose 2 µM) | 108

Shown with each value named: part of the list above
Cc1cc(SCc2sc(-c3ccc(C(F)(F)F)c(F)c3)nc2C)ccc1OCC(=O)O + c1cc(-c2cnn3cc(-c4ccc(OCCN5CCCCC5)cc4)cnc23)ccn1 [Dorsomorphin] (first compound 2 µM, partner dose 0.4 µM)
  cleaved PARP positive nuclei fraction [%]: 98.9
C#Cc1cccc(Nc2ncnc3cc(OCCOC)c(OCCOC)cc23)c1 [erlotinib] + C/C(O)=C(\C#N)C(=O)Nc1cc(Br)ccc1Br [LFM-A13] (first compound 0.8 µM, partner dose 2 µM)
  cleaved PARP positive nuclei fraction [%]: 75

Later entries:

Structure (SMILES) | cleaved PARP positive nuclei fraction [%]
COc1cc(N2CCC(N3CCN(C)CC3)CC2)ccc1Nc1ncc(Cl)c(Nc2ccccc2S(=O)(=O)C(C)C)n1 + O=C(Oc1ccc([N+](=O)[O-])cc1)N1CCC(C(O)(c2ccc3c(c2)OCO3)c2ccc3c(c2)OCO3)CC1 [JZL184] (first compound 0.08 µM, partner dose 1 µM) | 170
NCC(=O)Nc1ccc(-n2nc(C(F)(F)F)cc2-c2ccc3c(ccc4ccccc43)c2)cc1 + Cc1cc(SCc2sc(-c3ccc(C(F)(F)F)c(F)c3)nc2C)ccc1OCC(=O)O [GW0742] (first compound 1 µM, partner dose 2 µM) | 366
C/C(O)=C(\C#N)C(=O)Nc1cc(Br)ccc1Br + Cn1cc(/C=C2\C(=O)Nc3cccnc32)c2ccccc21 [GW441756] (first compound 2 µM, partner dose 0.4 µM) | 81.8
C[As](C)SC[C@H](NC(=O)CC[C@H](N)C(=O)O)C(=O)NCC(=O)O [Darinaparsin] + c1cc(-c2cnn3cc(-c4ccc(OCCN5CCCCC5)cc4)cnc23)ccn1 [Dorsomorphin] (first compound 0.4 µM, partner dose 0.4 µM) | 177
CCc1ccc(CCOc2ccc(CC3SC(=O)NC3=O)cc2)nc1 (configuration not stated) [pioglitazone] + C/C(O)=C(\C#N)C(=O)Nc1cc(Br)ccc1Br [LFM-A13] (first compound 2 µM, partner dose 2 µM) | 138
Nc1cccc2c1CN(C1CCC(=O)NC1=O)C2=O (configuration not stated) [lenalidomide] + Cc1cc(SCc2sc(-c3ccc(C(F)(F)F)c(F)c3)nc2C)ccc1OCC(=O)O [GW0742] (first compound 1 µM, partner dose 2 µM) | 47
Cc1cc(SCc2sc(-c3ccc(C(F)(F)F)c(F)c3)nc2C)ccc1OCC(=O)O + CC(C)CCN1c2nc(Nc3cc(F)c(O)c(F)c3)ncc2N(C)C(=O)C1C [BID1870] (first compound 2 µM, partner dose 0.2 µM) | 61.1
C[As](C)SC[C@H](NC(=O)CC[C@H](N)C(=O)O)C(=O)NCC(=O)O [Darinaparsin] + COc1cc2ncnc(Nc3ccc(Oc4ccccc4)cc3)c2cc1OC [SrcI1] (first compound 0.4 µM, partner dose 2 µM) | 60.4
COc1ccc(-c2ccc3c(N4CCOCC4)nc(N4C[C@@H](C)O[C@@H](C)C4)nc3n2)cc1CO + Cc1cc(SCc2sc(-c3ccc(C(F)(F)F)c(F)c3)nc2C)ccc1OCC(=O)O [GW0742] (first compound 0.02 µM, partner dose 2 µM) | 152
O=S(=O)(c1ccccc1)N(CC(F)(F)F)c1ccc(C(O)(C(F)(F)F)C(F)(F)F)cc1 + C/C(O)=C(\C#N)C(=O)Nc1cc(Br)ccc1Br [LFM-A13] (first compound 1.4 µM, partner dose 2 µM) | 70.4
O=C(O)c1ccc(-c2c[nH]c3ncc(-c4ccccc4)cc23)cc1C1CCCC1 + O=C(Oc1ccc([N+](=O)[O-])cc1)N1CCC(C(O)(c2ccc3c(c2)OCO3)c2ccc3c(c2)OCO3)CC1 [JZL184] (first compound 0.16 µM, partner dose 1 µM) | 149
Cn1nnc2c(C(N)=O)ncn2c1=O [temozolomide] + O=C(Oc1ccc([N+](=O)[O-])cc1)N1CCC(C(O)(c2ccc3c(c2)OCO3)c2ccc3c(c2)OCO3)CC1 [JZL184] (first compound 2 µM, partner dose 1 µM) | 70.3
Cc1cc(SCc2sc(-c3ccc(C(F)(F)F)c(F)c3)nc2C)ccc1OCC(=O)O + COc1cc(N2CCC(N3CCN(C)CC3)CC2)ccc1Nc1ncc(Cl)c(Nc2ccccc2S(=O)(=O)C(C)C)n1 [NVP-TAE684] (first compound 2 µM, partner dose 0.08 µM) | 122
CCN(CC)CCCCNc1ncc2cc(-c3cc(OC)cc(OC)c3)c(NC(=O)NC(C)(C)C)nc2n1 + C/C(O)=C(\C#N)C(=O)Nc1cc(Br)ccc1Br [LFM-A13] (first compound 0.1 µM, partner dose 2 µM) | 153
CN(NC(=O)CC(=O)NN(C)C(=S)c1ccccc1)C(=S)c1ccccc1 + C/C(O)=C(\C#N)C(=O)Nc1cc(Br)ccc1Br [LFM-A13] (first compound 0.006 µM, partner dose 2 µM) | 210
CCN(CC)CCCCNc1ncc2cc(-c3cc(OC)cc(OC)c3)c(NC(=O)NC(C)(C)C)nc2n1 + Cc1cc(SCc2sc(-c3ccc(C(F)(F)F)c(F)c3)nc2C)ccc1OCC(=O)O [GW0742] (first compound 0.1 µM, partner dose 2 µM) | 182
